{"source": "patent US11116722B2", "about": "“Antifungal dry powders” (priority 2016, dated 2021)", "assay": "UniDose POD in vitro dissolution of the impactor stage mass (ISM)", "type": "physicochemical", "conditions": "one 10 mg capsule, RS01 at 60 L/min; mass of itraconazole", "note": "For at least one compound, name, drawing or mass did not settle the structure."}
{"smiles": "CCC(C)n1ncn(-c2ccc(N3CCN(c4ccc(OCC5COC(Cn6cncn6)(c6ccc(Cl)cc6Cl)O5)cc4)CC3)cc2)c1=O", "note": "(stereo not shown) [Pure ITZ, Itraconazole]", "values": [{"measurement": "UniDose ISM", "result": 2.55, "unit": "mg"}]}
